Measured values published in patent US20070098718A1 (Novartis, published 2007).
These are yes or no findings as the source states them, for the method shown. Some entries that bind do so weakly or less than the wild type.

Chains of the proteins cited; added tags and fusions are not shown. Lines headed by an entry give the natural chain unless they say otherwise; changes in a name come on top.
UniProt P25942: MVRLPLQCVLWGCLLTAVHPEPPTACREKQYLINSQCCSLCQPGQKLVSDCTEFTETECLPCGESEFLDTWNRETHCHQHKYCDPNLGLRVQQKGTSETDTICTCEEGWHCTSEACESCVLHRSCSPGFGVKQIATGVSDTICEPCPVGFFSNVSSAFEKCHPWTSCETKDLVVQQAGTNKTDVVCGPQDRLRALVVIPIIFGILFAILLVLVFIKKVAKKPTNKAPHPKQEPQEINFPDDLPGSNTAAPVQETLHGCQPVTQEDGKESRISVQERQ

Experiments:
Purified CD40 (human) = Purified CD40 (human) (UniProt P25942); test: Western blot of purified CD40, antibody at 10 µg/ml
[1] = biological target: recombinant CD40 (ELISA antigen) (human) (UniProt P25942); test: ELISA-type assay

| Binder | binding (Purified CD40 (human)) | binding [1] |
| --- | --- | --- |
| monoclonal antibody CHIR-5.9 (antibody, human IgG1, kappa, V domains shown, Fully human IgG1 kappa anti-human CD40 mAb; also called mAb CHIR-5.9; antibody of hybridoma 131.2F8.5.9) VH: EVQLVQSGAEVKKPGESLKISCKGSGYSFTSYWIGWVRQMPGKGLEWMGIIYPGDSDTRYSPSFQGQVTISADKSISTAYLQWSSLKASDTAMYYCARGTAAGRDYYYYYGMDVWGQGTTVTVSS VL: AIVMTQPPLSSPVTLGQPASISCRSSQSLVHSDGNTYLNWLQQRPGQPPRLLIYKFFRRLSGVPDRFSGSGAGTDFTLKISRVEAEDVGVYYCMQVTQFPHTFGQGTRLEIKR | binds | binds |
| monoclonal antibody CHIR-12.12 (antibody, human IgG1, kappa, V domains shown, Fully human IgG1 kappa anti-human CD40 mAb; also called antibody of hybridoma 153.8E2.D10.D6.12.12) VH: QVQLVESGGGVVQPGRSLRLSCAASGFTFSSYGMHWVRQAPGKGLEWVAVISYEESNRYHADSVKGRFTISRDNSKITLYLQMNSLRTEDTAVYYCARDGGIAAPGPDYWGQGTLVTVSS VL: DIVMTQSPLSLTVTPGEPASISCRSSQSLLYSNGYNYLDWYLQKPGQSPQVLISLGSNRASGVPDRFSGSGSGTDFTLKISRVEAEDVGVYYCMQARQTPFTFGPGTKVDIRR | binds | binds |
